Results as given in publication PMC12611769, “Phase-separated NDF−FACT condensates facilitate transcription elongation on chromatin” (Nature Cell Biology, 2025).
No constants are given. Whether binding was seen depends on the method and setting. For part of these data: In cells and extracts the contact can be indirect. Some results given as binding are weak or reduced against the parent protein; the word gives no strength. For part of these data: Tags and fused reporters may be left off the sequences shown.

Protein sequences, listed by entry. Tags and fused reporters are not part of them.
UniProt P32558: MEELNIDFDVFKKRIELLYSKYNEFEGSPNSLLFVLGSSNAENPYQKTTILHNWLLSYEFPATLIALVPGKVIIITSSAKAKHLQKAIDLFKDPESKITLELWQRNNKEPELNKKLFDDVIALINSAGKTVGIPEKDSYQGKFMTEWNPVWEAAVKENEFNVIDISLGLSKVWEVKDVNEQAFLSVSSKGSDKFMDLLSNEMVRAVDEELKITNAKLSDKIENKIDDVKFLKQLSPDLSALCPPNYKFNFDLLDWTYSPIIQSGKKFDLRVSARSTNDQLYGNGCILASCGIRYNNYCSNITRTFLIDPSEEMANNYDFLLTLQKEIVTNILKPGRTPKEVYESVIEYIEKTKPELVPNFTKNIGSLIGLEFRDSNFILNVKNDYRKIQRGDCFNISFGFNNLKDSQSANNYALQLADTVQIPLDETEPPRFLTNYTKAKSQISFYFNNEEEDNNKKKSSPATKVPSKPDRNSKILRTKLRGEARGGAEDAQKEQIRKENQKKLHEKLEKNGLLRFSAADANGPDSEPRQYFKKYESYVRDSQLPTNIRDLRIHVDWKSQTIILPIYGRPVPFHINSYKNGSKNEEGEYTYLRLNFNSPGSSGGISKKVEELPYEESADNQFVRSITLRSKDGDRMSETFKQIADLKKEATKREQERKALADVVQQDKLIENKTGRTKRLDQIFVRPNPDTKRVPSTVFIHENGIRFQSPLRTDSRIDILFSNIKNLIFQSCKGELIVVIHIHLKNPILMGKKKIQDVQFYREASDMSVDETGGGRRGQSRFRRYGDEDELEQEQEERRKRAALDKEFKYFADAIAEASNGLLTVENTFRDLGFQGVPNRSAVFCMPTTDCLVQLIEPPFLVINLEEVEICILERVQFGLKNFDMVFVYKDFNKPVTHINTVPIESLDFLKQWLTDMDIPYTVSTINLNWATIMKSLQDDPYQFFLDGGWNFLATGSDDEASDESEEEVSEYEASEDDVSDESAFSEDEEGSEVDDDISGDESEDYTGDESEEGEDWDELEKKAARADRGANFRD
UniProt Q04636: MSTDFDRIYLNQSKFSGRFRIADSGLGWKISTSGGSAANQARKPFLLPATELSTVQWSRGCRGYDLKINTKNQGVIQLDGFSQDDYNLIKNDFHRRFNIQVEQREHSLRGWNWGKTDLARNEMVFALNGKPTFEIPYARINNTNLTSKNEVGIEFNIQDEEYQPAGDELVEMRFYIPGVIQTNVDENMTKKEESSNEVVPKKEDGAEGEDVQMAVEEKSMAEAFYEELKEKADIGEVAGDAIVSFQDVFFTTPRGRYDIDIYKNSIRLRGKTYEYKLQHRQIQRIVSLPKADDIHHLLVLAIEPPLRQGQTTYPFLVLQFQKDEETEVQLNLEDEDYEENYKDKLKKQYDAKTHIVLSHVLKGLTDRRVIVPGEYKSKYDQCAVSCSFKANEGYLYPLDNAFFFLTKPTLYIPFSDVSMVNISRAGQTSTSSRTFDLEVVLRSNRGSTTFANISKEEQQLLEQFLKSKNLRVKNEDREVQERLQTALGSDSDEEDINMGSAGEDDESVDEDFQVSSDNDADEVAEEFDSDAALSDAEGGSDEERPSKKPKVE
UniProt Q9Y5B9: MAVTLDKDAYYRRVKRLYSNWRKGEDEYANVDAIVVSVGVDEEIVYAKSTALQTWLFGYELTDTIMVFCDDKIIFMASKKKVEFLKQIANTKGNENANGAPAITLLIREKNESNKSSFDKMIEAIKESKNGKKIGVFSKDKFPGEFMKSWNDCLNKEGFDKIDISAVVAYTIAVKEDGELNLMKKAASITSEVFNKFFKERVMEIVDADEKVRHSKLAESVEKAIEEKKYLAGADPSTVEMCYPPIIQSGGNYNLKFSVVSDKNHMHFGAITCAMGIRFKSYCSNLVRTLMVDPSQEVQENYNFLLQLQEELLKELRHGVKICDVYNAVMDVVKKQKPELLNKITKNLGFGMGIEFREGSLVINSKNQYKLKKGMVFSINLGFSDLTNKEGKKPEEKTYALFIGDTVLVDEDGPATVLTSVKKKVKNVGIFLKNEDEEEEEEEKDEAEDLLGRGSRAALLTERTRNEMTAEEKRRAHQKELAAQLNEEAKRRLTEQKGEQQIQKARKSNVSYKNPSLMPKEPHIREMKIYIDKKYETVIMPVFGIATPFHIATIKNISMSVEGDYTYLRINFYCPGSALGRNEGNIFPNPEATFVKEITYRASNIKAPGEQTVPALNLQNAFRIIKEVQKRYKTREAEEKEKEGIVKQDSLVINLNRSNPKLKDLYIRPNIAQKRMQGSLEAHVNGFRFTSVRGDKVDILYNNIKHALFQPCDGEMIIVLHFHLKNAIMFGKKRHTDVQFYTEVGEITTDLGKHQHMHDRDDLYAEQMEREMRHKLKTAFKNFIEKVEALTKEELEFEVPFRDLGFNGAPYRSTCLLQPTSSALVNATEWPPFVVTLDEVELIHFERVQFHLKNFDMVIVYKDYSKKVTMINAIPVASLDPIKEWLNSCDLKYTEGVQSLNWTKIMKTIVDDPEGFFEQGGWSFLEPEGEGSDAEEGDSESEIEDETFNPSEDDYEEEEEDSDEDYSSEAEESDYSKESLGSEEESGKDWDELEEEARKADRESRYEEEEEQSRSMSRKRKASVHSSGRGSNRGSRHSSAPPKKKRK

Tests used:
[1] = biological target: His6-ySpt16 (S. cerevisiae Spt16) (S. cerevisiae) (UniProt P32558); assay: co-purification (tandem affinity, His tag then Flag M2); his-ySpt16 and Flag-yPob3 co-expressed in bacteria; purified similar to his-hNDF, then Flag M2 agarose, 3x Flag peptide elution; SDS-PAGE
[2] = biological target: T1, NDF (nucleosome destabilizing factor), endogenous (human (endogenous in HeLa)) (UniProt Q49A26); assay: co-IP; HeLa lysate in RIPA buffer, sonicated; hNDF antiserum on Protein A agarose, 4 °C 3 h; western blot
T1 sequence: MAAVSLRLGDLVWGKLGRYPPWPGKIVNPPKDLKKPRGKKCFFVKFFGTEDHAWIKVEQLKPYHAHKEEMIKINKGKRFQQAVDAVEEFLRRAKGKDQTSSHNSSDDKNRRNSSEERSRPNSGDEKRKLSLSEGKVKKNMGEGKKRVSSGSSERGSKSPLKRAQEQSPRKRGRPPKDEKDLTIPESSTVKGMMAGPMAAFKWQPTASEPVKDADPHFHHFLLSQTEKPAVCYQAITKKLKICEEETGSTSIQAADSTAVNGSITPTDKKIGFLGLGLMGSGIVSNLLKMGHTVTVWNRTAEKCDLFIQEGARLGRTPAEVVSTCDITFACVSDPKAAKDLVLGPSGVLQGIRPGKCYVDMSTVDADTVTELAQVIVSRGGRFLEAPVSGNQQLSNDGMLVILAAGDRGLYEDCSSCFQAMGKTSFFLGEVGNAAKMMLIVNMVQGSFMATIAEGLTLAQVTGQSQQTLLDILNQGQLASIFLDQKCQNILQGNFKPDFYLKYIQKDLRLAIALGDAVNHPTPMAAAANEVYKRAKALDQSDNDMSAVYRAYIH

[3] = biological target: T2, His6-ySpt5 (S. cerevisiae Spt5) (S. cerevisiae) (UniProt P27692); assay: co-purification (tandem affinity, Ni-NTA then Flag M2); His6-ySpt5 and Flag-ySpt4 co-expressed in Rosetta 2 (DE3) pLysS; Ni-NTA in 700 mM NaCl, then Flag M2 agarose with washes at 400 mM KCl, 3x Flag peptide elution, 4 °C
T2 sequence: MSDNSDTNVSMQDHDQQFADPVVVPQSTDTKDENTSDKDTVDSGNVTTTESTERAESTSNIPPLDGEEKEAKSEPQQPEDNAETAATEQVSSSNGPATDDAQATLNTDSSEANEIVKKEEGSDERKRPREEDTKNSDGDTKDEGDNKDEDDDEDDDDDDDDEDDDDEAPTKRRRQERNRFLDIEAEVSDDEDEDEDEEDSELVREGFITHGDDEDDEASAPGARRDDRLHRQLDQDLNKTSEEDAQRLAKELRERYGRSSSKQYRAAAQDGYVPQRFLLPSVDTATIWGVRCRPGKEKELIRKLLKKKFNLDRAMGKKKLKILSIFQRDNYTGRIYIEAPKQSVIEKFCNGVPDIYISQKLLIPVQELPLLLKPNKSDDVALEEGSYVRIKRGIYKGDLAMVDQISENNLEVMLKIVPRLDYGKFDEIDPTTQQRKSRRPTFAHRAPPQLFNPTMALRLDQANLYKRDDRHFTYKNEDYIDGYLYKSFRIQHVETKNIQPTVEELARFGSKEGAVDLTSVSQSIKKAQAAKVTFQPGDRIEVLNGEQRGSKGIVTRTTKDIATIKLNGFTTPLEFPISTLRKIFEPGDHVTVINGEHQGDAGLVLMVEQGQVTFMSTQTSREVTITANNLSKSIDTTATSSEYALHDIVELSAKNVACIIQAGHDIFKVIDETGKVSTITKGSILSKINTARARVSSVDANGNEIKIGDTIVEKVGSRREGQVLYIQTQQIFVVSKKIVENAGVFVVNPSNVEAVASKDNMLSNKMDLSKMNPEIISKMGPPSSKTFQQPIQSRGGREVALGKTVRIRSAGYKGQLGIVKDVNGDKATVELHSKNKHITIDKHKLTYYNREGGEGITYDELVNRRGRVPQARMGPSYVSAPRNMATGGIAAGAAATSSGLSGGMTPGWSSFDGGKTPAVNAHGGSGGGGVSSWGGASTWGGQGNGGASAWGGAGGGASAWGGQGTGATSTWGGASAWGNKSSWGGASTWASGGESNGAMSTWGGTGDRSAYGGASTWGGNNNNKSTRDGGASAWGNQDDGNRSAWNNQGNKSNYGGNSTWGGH

“Flag-yPob3 (S. cerevisiae Pob3) (from UniProt Q04636 1-552)” was tested, and the binding [1] was “binds”.

“Spt16 (SUPT16H), subunit of the human FACT complex, endogenous (from UniProt Q9Y5B9 1-1047)” was tested, and the binding [2] was “binds”.

B1: Flag-ySpt4 (S. cerevisiae Spt4) (protein, UniProt P32914 1-102)
chain: MSSERACMLCGIVQTTNEFNRDGCPNCQGIFEEAGVSTMECTSPSFEGLVGMCKPTKSWVAKWLSVDHSIAGMYAIKVDGRLPAEVVELLPHYKPRDGSQVE
B1 was tested, and the binding [3] was “binds”.
